Drawing on publication PMC3400614, “Cofactor Binding Protects Flavodoxin against Oxidative Stress” (PLoS ONE, 2012), this text covers binding for 1 substance.

The chains behind the UniProt entries cited, without tags or fusion partners. Where a name states a change or a piece, a line headed by the entry shows the natural chain unless it says otherwise.
UniProt P00324: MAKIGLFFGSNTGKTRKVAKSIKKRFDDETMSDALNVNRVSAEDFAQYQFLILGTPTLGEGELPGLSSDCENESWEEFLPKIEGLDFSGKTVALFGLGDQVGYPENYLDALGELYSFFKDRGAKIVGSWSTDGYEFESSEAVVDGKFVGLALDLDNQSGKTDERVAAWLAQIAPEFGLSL

The target in the assay is C69A apoflavodoxin (Azotobacter vinelandii) (UniProt P00324). Put plainly: SEC; Superdex 75 HR 10/30, 0.5 mL/min, 25°C; apoprotein (38 μM wild type, 79 μM C69A) fresh and after 22-24 h with 10 mM H2O2 at 4°C; DTT removed before; both purified. A general note: Size exclusion chromatography separates by hydrodynamic size, large species first.

No constants are given. Whether binding was seen depends on the method and setting.

On to “C69A apoflavodoxin (from UniProt P00324 1-180)”, for which the binding entry is listed as “no binding (tested: 79 μM)”.
